# Results published in PubChem BioAssay AID588590 (National Center for Advancing Translational Sciences (NCATS), 2011).
# Sequences of proteins named here, by UniProt entry; tags and fusion partners are left off. A change or cut given only in a name is not applied to a line headed by its entry.
# UniProt Q9UNA4: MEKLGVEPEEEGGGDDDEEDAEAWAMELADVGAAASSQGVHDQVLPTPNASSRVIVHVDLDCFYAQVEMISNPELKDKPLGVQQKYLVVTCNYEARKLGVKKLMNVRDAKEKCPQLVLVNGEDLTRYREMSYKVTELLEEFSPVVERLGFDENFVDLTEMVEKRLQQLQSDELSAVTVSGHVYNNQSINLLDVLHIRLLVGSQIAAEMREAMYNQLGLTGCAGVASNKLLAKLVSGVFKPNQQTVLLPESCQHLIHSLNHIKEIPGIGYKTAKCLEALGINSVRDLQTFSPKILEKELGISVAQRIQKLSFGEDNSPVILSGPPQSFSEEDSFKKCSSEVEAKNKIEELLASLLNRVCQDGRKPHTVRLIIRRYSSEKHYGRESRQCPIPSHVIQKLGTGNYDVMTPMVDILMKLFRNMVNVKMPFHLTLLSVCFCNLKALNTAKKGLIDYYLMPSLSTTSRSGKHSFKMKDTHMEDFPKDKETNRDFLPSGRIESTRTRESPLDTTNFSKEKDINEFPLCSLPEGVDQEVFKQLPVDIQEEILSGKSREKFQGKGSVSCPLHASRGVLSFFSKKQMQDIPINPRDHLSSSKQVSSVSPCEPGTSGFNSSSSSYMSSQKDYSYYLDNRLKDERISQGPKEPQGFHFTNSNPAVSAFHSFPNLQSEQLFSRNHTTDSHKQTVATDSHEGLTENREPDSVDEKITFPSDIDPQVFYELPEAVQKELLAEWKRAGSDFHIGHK
# Values joined by “and” are separate entries in the source; they are usually repeats but may differ in a detail not shown here. Identical values can stand only once. In all, about 390,000 compounds went through this assay and about 4,000 (1%) were called active. Inconclusive means that the source gave no clear call. Such entries were picked first, then a sample of the others. The call rests on the fitted dose curve; in most records, active means well fitted inhibition curve with a large enough effect; inconclusive means small, poorly fitted or top-dose-only effect, or another doubt; inactive means no such curve, though single readings can be large or run the other way. Potencies beside an inconclusive call are fits to weak or partial responses and may not hold up.
# Target: DNA polymerase iota (Homo sapiens) (UniProt Q9UNA4)
# Assay: qHTS for Inhibitors of Polymerase Iota
# Conditions: Pol iota fluorescent replication assay, 10 min; series mostly up to 115 µM
# Procedure, shortened: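 Pol iota at 10 nM preincubated 15 min with compounds at room temperature; reaction started with fluorescent substrate, 50 nM final. Fluorescence read kinetically at 0 and 10 min; buffer-only wells as negative control.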
# Potency means the concentration at half of the fitted maximal effect.
row,Compound,Potency
1,O=C(NCCCn1ccnc1)c1cc(-c2cccc(O)c2)on1,"inconclusive: 2.24 µM [inhibitor, full curve, poor fit]"
2,COc1cc(OC)c(C2CC(=O)Nc3ccc4ccccc4c32)cc1OC (stereo unspecified),"inconclusive: 100 µM [inhibitor, partial curve, poor fit]"
3,COC1=C(OC)C(=O)C(Sc2ccc3ccccc3c2)=CC1=O,"inconclusive: 35.5 µM [inhibitor, partial curve, poor fit]"
4,CCOc1c(C)cnc2c1c(=O)n(Cc1cccc(Cl)c1)c(=O)n2C,"inconclusive: 79.4 µM [inhibitor, partial curve]"
5,COCCNC(=O)Cn1nc(-c2ccccc2)c2ccccc2c1=O,"inconclusive: 79.4 µM [inhibitor, partial curve, poor fit]"
6,CNC(=O)N(O)C1N(/N=C/c2ccccc2F)C(=S)SC1(C)C (stereo unspecified),"inconclusive: 79.4 µM [inhibitor, single point]"
7,CC1=CC(=O)C(C(C)C)=C/C1=N/OS(=O)(=O)c1ccccc1,"inconclusive: 39.8 µM [inhibitor, partial curve, poor fit]"
8,Cc1cccc2cc(CN(CC3CCCO3)C(=O)c3ccco3)c(=O)[nH]c12 (stereo unspecified),"inconclusive: 2.82 µM [inhibitor, full curve, poor fit]"
9,O=[n+]1c2c(n([O-])c3cc(Br)ccc31)CCC2,"inconclusive: 22.4 µM [inhibitor, partial curve, poor fit]"
10,Cc1ccc([C@@H]2[C@@H]3C(=O)N(C)C(=O)[C@@H]3[C@]3(Cc4ccccc4)C(=O)N(Cc4ccccn4)CC(=O)N23)o1,"inconclusive: 35.5 µM [inhibitor, single point]"
11,Fc1ccc(CN2CCCCCC2)c(F)c1,inactive
12,C=CCc1cccc2cc(C(=O)NNC(=O)c3ccncc3)c(=O)oc12,"inconclusive: 17.8 µM [inhibitor, partial curve, poor fit]"
13,COc1ccc(S(=O)(=O)Nc2ccc(S(=O)(=O)N(C)C)cc2)cc1[N+](=O)[O-],"inconclusive: 100 µM [inhibitor, partial curve]"
14,O=S(=O)(c1ccccc1)[C@@]1(c2ccc(Br)cc2)C[C@@H]2ON=C(c3cccc(Br)c3)[C@@H]2C1,"inconclusive: 79.4 µM [inhibitor, partial curve]"
15,CCOC(=O)c1c(NC(=O)c2cc(=O)c3cc(C)ccc3o2)sc2c1CCCC2,inactive
16,O=C(CSc1ccccc1F)NC(=O)c1ccccc1Br,"inconclusive: 25.1 µM [inhibitor, partial curve]"
17,CCN(CC)c1ccc(C(=S)N2CCN(c3ccccc3)CC2)cc1,"inconclusive: 39.8 µM [inhibitor, single point]"
18,C#CCOCCOCCOCCNc1nc(N2CCN(C(=O)[C@H](C(C)C)n3cc(CCO)nn3)CC2)nc(N2CCN(C(=O)[C@H]([C@@H](C)CC)n3cc(CCCCN)nn3)CC2)n1,"inconclusive: 31.6 µM [inhibitor, single point]"
19,CS(=O)(=O)c1ccc(C(=O)OCC(=O)NC(=O)NC2CCCCC2)cc1[N+](=O)[O-],inactive
20,Cc1noc(NS(=O)(=O)c2ccc(N/C=C\C(=O)c3ccc4c(c3)OCO4)cc2)c1C,"inconclusive: 70.8 µM [inhibitor, partial curve]"
21,Cc1cccc(CC(=O)NCC(=O)NCc2cc(=O)n(C)c(=O)n2C)c1,inactive

row,Compound,Potency
1,O=C(NCCc1ccccc1)c1ccc2c(c1)N(Cc1ccc(F)cc1)C(=O)CS2,"inconclusive: 39.8 µM [inhibitor, partial curve, poor fit]"
2,Cc1ccc(-c2csc(NC(=O)CSc3nc(C)cc(=O)[nH]3)n2)cc1,"inconclusive: 20 µM [inhibitor, single point]"
3,CC1(C)SC2c3ccccc3C(=O)N2[C@@H]1C(=O)O (stereo partly specified),inactive
4,Cc1cc2[nH]c(=O)c(=O)[nH]c2cc1S(=O)(=O)N1CCN(c2cccc(Cl)c2)CC1,"inconclusive: 89.1 µM [inhibitor, single point] and inconclusive: 79.4 µM [inhibitor, partial curve, poor fit]"
5,O=C(CNC(=O)c1ccco1)N=Nc1c(O)[nH]c2ccc([N+](=O)[O-])cc12,"inconclusive: 25.1 µM [inhibitor, full curve]"
6,FC(F)(F)c1cc(-c2ccco2)nc(NCc2ccco2)n1,"inconclusive: 25.1 µM [inhibitor, partial curve, poor fit]"
7,CC(C)CN(C(=O)CSc1nnc2c(Cl)cc(C(F)(F)F)cn12)C1CCS(=O)(=O)C1 (stereo unspecified),"inconclusive: 100 µM [inhibitor, single point]"
8,Cn1c(SCC(=O)c2ccc3c(c2)Cc2ccccc2-3)nnc1-c1ccccc1,"inconclusive: 8.91 µM [inhibitor, full curve, poor fit]"
9,CCCCCCC(=O)Nc1nc(C)c(-c2csc(Nc3cc(Cl)ccc3C)n2)s1,"inconclusive: 15.8 µM [inhibitor, full curve, poor fit]"
10,O=C(Nc1cc(S(=O)(=O)N2CCOCC2)ccc1N1CCCC1)c1ccc(Cl)cc1,inactive
11,Cc1ccc(-c2csc3ncnc(N4CCN(c5ccccc5O)CC4)c23)cc1,inactive
12,COc1ccc(CNC[C@H]2O[C@@H](n3ccc(=O)[nH]c3=O)[C@H](O)[C@@H]2O)cc1OC,"inconclusive: 50.1 µM [inhibitor, partial curve, poor fit]"
13,CN(C(=O)c1ccc(NC(=O)Cc2ccc(NC(=O)C3CCCN(S(=O)(=O)c4cccc([N+](=O)[O-])c4)C3)cc2)cc1)C1CCCC1 (stereo unspecified),"inconclusive: 1.41 µM [inhibitor, full curve, poor fit]"
14,COc1ccc(C(=O)NC2CCCc3c2cnn3-c2ccccc2F)o1 (stereo unspecified),"inconclusive: 25.1 µM [inhibitor, partial curve, poor fit]"
15,C/C(=N/NC(=O)Cc1cc(=O)[nH][nH]1)c1ccc([N+](=O)[O-])cc1,inactive
16,CCCC(C)c1nnc(NC(=O)CS(=O)(=O)Cc2ccccc2)s1 (stereo unspecified),"inconclusive: 0.794 µM [inhibitor, full curve, poor fit]"
17,C=CCn1c(SCC(=O)NCc2ccco2)nc2ccccc2c1=O,inactive
18,CCN(CC)CCn1c2ccccc2c2cnc(N)c(C#N)c21,"inconclusive: 79.4 µM [inhibitor, partial curve]"
19,COC(=O)C1CC2=C(CC(C)(C)CC2=O)N(c2ccccc2)C1=O (stereo unspecified),"inconclusive: 31.6 µM [inhibitor, partial curve, poor fit]"
20,Cc1cccn2c(=O)c3cc(C(=O)NCCc4ccccc4)c(=N)n(Cc4ccco4)c3nc12,active: 7.94 µM
21,O=C(Nc1ccncc1)C1C(=O)c2ccccc2N(Cc2ccccc2)C1=O (stereo unspecified),"inconclusive: 50.1 µM [inhibitor, partial curve, poor fit]"

row,Compound,Potency
1,Cc1nc2cccnc2n1C1CCN(C(=O)Nc2ccc(Cl)cc2)CC1,inactive
2,CCCCCCCCCCCC[n+]1ccc(C)c2ccccc21,"inconclusive: 14.1 µM [inhibitor, partial curve, poor fit]"
3,COc1ccc(CCn2c(=S)[nH]c(=O)c3cccnc32)cc1OC,inactive
4,CCOc1ccc2ncc(C(=O)c3ccc(OC)cc3)c(N3CCN(CC)CC3)c2c1,"inconclusive: 14.1 µM [inhibitor, partial curve, poor fit]"
5,CC(Sc1nc(-c2ccccc2)cc(C(F)(F)F)n1)C(=O)N1CCOCC1 (stereo unspecified),"inconclusive: 89.1 µM [inhibitor, partial curve]"
6,C=CCc1cccc2cc(C(=O)NNC(=O)CC#N)c(=O)oc12,"inconclusive: 79.4 µM [inhibitor, partial curve, poor fit]"
7,CCc1ccc(Nc2nc3ccccc3nc2NS(=O)(=O)c2ccccc2)cc1,inactive
8,Cc1ccc(-n2nc(C)c3c(C(F)(F)F)cc(-c4cccnc4)nc32)cc1Cl,inactive
9,CC1=NN(c2ccccc2)C(=O)/C1=C\C=C\c1ccccc1,"inconclusive: 25.1 µM [inhibitor, partial curve, poor fit]"
10,COc1cccc(NC(=O)CN2C(=O)c3ccccc3Sc3ncccc32)c1,inactive
11,COc1ccccc1N1CCN(C(c2cccs2)C(C)NC(=O)c2cccnc2)CC1 (stereo unspecified),"inconclusive: 100 µM [inhibitor, single point]"
12,COc1ccc(C(C[N+](=O)[O-])c2c(-c3ccccc3)cc3ccccn23)cc1 (stereo unspecified),"inconclusive: 28.2 µM [inhibitor, single point]"
13,O=C(O)c1ccc(Nc2ncc([N+](=O)[O-])cc2[N+](=O)[O-])cc1,"inconclusive: 25.1 µM [inhibitor, full curve]"
14,O=c1cc(-c2ccc(O)cc2)oc2c(-c3c(O)cc(O)c4c(=O)cc(-c5ccc(O)cc5)oc34)c(O)cc(O)c12,"inconclusive: 79.4 µM [inhibitor, single point]"
15,O=C(C1=C(O)C(=O)N(CC2CCCO2)C1c1ccc(Cl)cc1Cl)c1ccco1 (stereo unspecified),"inconclusive: 14.1 µM [inhibitor, partial curve, poor fit]"
16,O=C(COc1ccc2c(c1)oc(=O)c1ccccc12)NCC1CCC(C(=O)O)CC1 (stereo unspecified),"inconclusive: 28.2 µM [inhibitor, partial curve, poor fit]"
17,O=C(Nc1sc2c(c1C(=O)NCc1cccnc1)CCCC2)c1ccco1,"inconclusive: 44.7 µM [inhibitor, partial curve, poor fit]"
18,Cc1[nH]n(-c2ccccc2)c(=O)c1CCO,inactive
19,CN1C(=O)/C(=C/c2ccccc2Cl)Sc2ccc(C(=O)N3CCCC3)cc21,"inconclusive: 89.1 µM [inhibitor, partial curve, poor fit]"
